According to the supplement of paper PMC7661543:
Differences between knockout arms are mostly noise.

Tested on: BT-20
Assay: relative cell number vs DMSO control (72 h) (% of DMSO); higher = less growth inhibition (more cells)
Procedure: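 QMAP-Seq: a pool of 5 breast cancer cell lines (ZR-75-1, SKBR3, HCC-38, MDA-MB-231, BT-20), each carrying 12 doxycycline-inducible Cas9 sgRNA perturbations (11 knockouts plus non-targeting sgNT), was treated with compounds for 72 h at four 10-fold doses (10 nM-10 uM or 1 nM-1 uM range). Barcodes were amplified and sequenced, and cell number was interpolated from 293T spike-in standard curves. The result is expressed as % of the median of DMSO wells. Two biological replicates.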

O=C1CCC(N2C(=O)c3ccccc3C2=O)C(=O)N1 (configuration not stated) [Thalidomide]
Conditions	relative cell number
sgRNA knockout: sgATF3, 10 nM	104
sgRNA knockout: sgATF3, 100 nM	90.9
sgRNA knockout: sgATF3, 1000 nM	105
sgRNA knockout: sgATF3, 10000 nM	107
sgRNA knockout: sgATF4, 10 nM	121
sgRNA knockout: sgATF4, 100 nM	81.2
sgRNA knockout: sgATF4, 1000 nM	116
sgRNA knockout: sgATF4, 10000 nM	123
sgRNA knockout: sgATF6, 10 nM	89.1
sgRNA knockout: sgATF6, 100 nM	84.1
sgRNA knockout: sgATF6, 1000 nM	120
sgRNA knockout: sgATF6, 10000 nM	115
sgRNA knockout: sgATG7, 10 nM	96.4
sgRNA knockout: sgATG7, 100 nM	82.1
sgRNA knockout: sgATG7, 1000 nM	108
sgRNA knockout: sgATG7, 10000 nM	115
sgRNA knockout: sgERN1, 10 nM	95.8
sgRNA knockout: sgERN1, 100 nM	89
sgRNA knockout: sgERN1, 1000 nM	101
sgRNA knockout: sgERN1, 10000 nM	112
sgRNA knockout: sgHSF1, 10 nM	104
sgRNA knockout: sgHSF1, 100 nM	82.4
sgRNA knockout: sgHSF1, 1000 nM	106
sgRNA knockout: sgHSF1, 10000 nM	124
sgRNA knockout: sgHSF2, 10 nM	107
sgRNA knockout: sgHSF2, 100 nM	81.5
sgRNA knockout: sgHSF2, 1000 nM	95.6
sgRNA knockout: sgHSF2, 10000 nM	113
sgRNA knockout: sgKEAP1, 10 nM	97.1
sgRNA knockout: sgKEAP1, 100 nM	85.1
sgRNA knockout: sgKEAP1, 1000 nM	101
sgRNA knockout: sgKEAP1, 10000 nM	105
sgRNA knockout: sgNFE2L2, 10 nM	120
sgRNA knockout: sgNFE2L2, 100 nM	93.9
sgRNA knockout: sgNFE2L2, 1000 nM	129
sgRNA knockout: sgNFE2L2, 10000 nM	152
sgRNA knockout: sgSLC35F2, 10 nM	101
sgRNA knockout: sgSLC35F2, 100 nM	80
sgRNA knockout: sgSLC35F2, 1000 nM	114
sgRNA knockout: sgSLC35F2, 10000 nM	122
sgRNA knockout: sgXBP1, 10 nM	111
sgRNA knockout: sgXBP1, 100 nM	95.3
sgRNA knockout: sgXBP1, 1000 nM	116
sgRNA knockout: sgXBP1, 10000 nM	121

COc1cc(-n2c(=S)[nH]c3ccccc3c2=O)c(Cl)cc1Cl [Mdivi1]
Conditions	relative cell number
sgRNA knockout: sgATF3, 10 nM	92.1
sgRNA knockout: sgATF3, 100 nM	96.1
sgRNA knockout: sgATF3, 1000 nM	99.5
sgRNA knockout: sgATF3, 10000 nM	86.7
sgRNA knockout: sgATF4, 10 nM	92.9
sgRNA knockout: sgATF4, 100 nM	113.87
sgRNA knockout: sgATF4, 1000 nM	119
sgRNA knockout: sgATF4, 10000 nM	88.1
sgRNA knockout: sgATF6, 10 nM	90.1
sgRNA knockout: sgATF6, 100 nM	109
sgRNA knockout: sgATF6, 1000 nM	105
sgRNA knockout: sgATF6, 10000 nM	96.3
sgRNA knockout: sgATG7, 10 nM	91.6
sgRNA knockout: sgATG7, 100 nM	95
sgRNA knockout: sgATG7, 1000 nM	95.2
sgRNA knockout: sgATG7, 10000 nM	102
sgRNA knockout: sgERN1, 10 nM	101
sgRNA knockout: sgERN1, 100 nM	95.6
sgRNA knockout: sgERN1, 1000 nM	99.8
sgRNA knockout: sgERN1, 10000 nM	96.9
sgRNA knockout: sgHSF1, 10 nM	89
sgRNA knockout: sgHSF1, 100 nM	105
sgRNA knockout: sgHSF1, 1000 nM	83.9
sgRNA knockout: sgHSF1, 10000 nM	92.7
sgRNA knockout: sgHSF2, 10 nM	85.6
sgRNA knockout: sgHSF2, 100 nM	98.8
sgRNA knockout: sgHSF2, 1000 nM	106
sgRNA knockout: sgHSF2, 10000 nM	95.9
sgRNA knockout: sgKEAP1, 10 nM	85
sgRNA knockout: sgKEAP1, 100 nM	88.8
sgRNA knockout: sgKEAP1, 1000 nM	85.2
sgRNA knockout: sgKEAP1, 10000 nM	93.5
sgRNA knockout: sgNFE2L2, 10 nM	80.1
sgRNA knockout: sgNFE2L2, 100 nM	106
sgRNA knockout: sgNFE2L2, 1000 nM	100
sgRNA knockout: sgNFE2L2, 10000 nM	93.1
sgRNA knockout: sgSLC35F2, 10 nM	92.5
sgRNA knockout: sgSLC35F2, 100 nM	126
sgRNA knockout: sgSLC35F2, 1000 nM	95.8
sgRNA knockout: sgSLC35F2, 10000 nM	79
sgRNA knockout: sgXBP1, 10 nM	94.7
sgRNA knockout: sgXBP1, 100 nM	102
sgRNA knockout: sgXBP1, 1000 nM	109
sgRNA knockout: sgXBP1, 10000 nM	103

CC(C)C[C@H](NC(=O)CNC(=O)c1cc(Cl)ccc1Cl)B(O)O [MLN2238]
Conditions	relative cell number
sgRNA knockout: sgATF3, 10 nM	99.4
sgRNA knockout: sgATF3, 100 nM	91.1
sgRNA knockout: sgATF3, 1000 nM	32.8
sgRNA knockout: sgATF3, 10000 nM	12.9
sgRNA knockout: sgATF4, 10 nM	81.6
sgRNA knockout: sgATF4, 100 nM	85.3
sgRNA knockout: sgATF4, 1000 nM	29.6
sgRNA knockout: sgATF4, 10000 nM	11.2
sgRNA knockout: sgATF6, 10 nM	76.7
sgRNA knockout: sgATF6, 100 nM	72.1
sgRNA knockout: sgATF6, 1000 nM	27.5
sgRNA knockout: sgATF6, 10000 nM	19.3
sgRNA knockout: sgATG7, 10 nM	84
sgRNA knockout: sgATG7, 100 nM	83.2
sgRNA knockout: sgATG7, 1000 nM	26.1
sgRNA knockout: sgATG7, 10000 nM	12.7
sgRNA knockout: sgERN1, 10 nM	96.1
sgRNA knockout: sgERN1, 100 nM	97.3
sgRNA knockout: sgERN1, 1000 nM	28.5
sgRNA knockout: sgERN1, 10000 nM	17
sgRNA knockout: sgHSF1, 10 nM	67.7
sgRNA knockout: sgHSF1, 100 nM	69.4
sgRNA knockout: sgHSF1, 1000 nM	21.1
sgRNA knockout: sgHSF1, 10000 nM	9.81
sgRNA knockout: sgHSF2, 10 nM	86.4
sgRNA knockout: sgHSF2, 100 nM	100.5
sgRNA knockout: sgHSF2, 1000 nM	37.8
sgRNA knockout: sgHSF2, 10000 nM	12.3
sgRNA knockout: sgKEAP1, 10 nM	93.4
sgRNA knockout: sgKEAP1, 100 nM	94.6
sgRNA knockout: sgKEAP1, 1000 nM	33
sgRNA knockout: sgKEAP1, 10000 nM	14.6
sgRNA knockout: sgNFE2L2, 10 nM	76.5
sgRNA knockout: sgNFE2L2, 100 nM	61.8
sgRNA knockout: sgNFE2L2, 1000 nM	23.03
sgRNA knockout: sgNFE2L2, 10000 nM	14.2
sgRNA knockout: sgSLC35F2, 10 nM	107
sgRNA knockout: sgSLC35F2, 100 nM	97.15
sgRNA knockout: sgSLC35F2, 1000 nM	35.6
sgRNA knockout: sgSLC35F2, 10000 nM	17.5
sgRNA knockout: sgXBP1, 10 nM	71.1
sgRNA knockout: sgXBP1, 100 nM	80.8
sgRNA knockout: sgXBP1, 1000 nM	28.4
sgRNA knockout: sgXBP1, 10000 nM	7.21
